Reference: article PMC5645493, “LAR-RPTP Clustering Is Modulated by Competitive Binding between Synaptic Adhesion Partners and Heparan Sulfate” (Frontiers in Molecular Neuroscience, 2017)
These are yes or no findings as the source states them, for the method shown. Some results given as binding are weak or reduced against the parent protein; the word gives no strength.

T1: pDis-PTPδ WT(+/+) (human) (UniProt P23468)
T1 sequence: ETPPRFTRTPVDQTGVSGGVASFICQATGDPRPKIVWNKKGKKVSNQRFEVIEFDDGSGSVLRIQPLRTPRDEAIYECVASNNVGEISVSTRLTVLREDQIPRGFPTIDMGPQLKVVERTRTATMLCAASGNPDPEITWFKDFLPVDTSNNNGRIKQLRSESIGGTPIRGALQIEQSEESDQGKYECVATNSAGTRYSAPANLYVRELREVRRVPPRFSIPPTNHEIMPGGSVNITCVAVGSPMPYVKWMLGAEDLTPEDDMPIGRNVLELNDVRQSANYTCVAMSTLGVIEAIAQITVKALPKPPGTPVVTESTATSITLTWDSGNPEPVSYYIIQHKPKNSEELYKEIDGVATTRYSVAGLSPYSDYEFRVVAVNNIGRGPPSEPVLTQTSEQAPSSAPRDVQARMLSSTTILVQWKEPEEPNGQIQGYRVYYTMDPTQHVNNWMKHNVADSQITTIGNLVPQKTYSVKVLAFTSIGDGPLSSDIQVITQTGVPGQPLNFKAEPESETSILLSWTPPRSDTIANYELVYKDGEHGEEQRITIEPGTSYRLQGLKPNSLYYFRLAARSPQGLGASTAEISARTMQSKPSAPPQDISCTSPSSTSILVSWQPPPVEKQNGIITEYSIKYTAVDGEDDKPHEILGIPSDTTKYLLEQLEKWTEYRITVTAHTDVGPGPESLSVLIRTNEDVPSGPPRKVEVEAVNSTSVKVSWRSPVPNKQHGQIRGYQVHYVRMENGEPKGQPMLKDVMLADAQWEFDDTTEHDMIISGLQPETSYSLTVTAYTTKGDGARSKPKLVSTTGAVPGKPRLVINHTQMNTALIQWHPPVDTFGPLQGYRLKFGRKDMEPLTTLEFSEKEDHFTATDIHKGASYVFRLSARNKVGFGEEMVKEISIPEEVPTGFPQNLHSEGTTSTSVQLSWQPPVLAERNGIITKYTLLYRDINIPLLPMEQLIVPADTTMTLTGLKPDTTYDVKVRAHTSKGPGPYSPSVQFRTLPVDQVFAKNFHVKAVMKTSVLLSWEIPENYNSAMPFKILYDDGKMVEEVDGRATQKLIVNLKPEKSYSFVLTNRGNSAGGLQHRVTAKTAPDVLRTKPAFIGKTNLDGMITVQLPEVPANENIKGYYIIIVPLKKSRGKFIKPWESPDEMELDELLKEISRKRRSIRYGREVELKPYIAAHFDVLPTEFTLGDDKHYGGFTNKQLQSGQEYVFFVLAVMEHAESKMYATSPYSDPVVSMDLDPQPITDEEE

T2: pDis-PTPδΔK(+/+) (human) (UniProt P23468)
T2 sequence: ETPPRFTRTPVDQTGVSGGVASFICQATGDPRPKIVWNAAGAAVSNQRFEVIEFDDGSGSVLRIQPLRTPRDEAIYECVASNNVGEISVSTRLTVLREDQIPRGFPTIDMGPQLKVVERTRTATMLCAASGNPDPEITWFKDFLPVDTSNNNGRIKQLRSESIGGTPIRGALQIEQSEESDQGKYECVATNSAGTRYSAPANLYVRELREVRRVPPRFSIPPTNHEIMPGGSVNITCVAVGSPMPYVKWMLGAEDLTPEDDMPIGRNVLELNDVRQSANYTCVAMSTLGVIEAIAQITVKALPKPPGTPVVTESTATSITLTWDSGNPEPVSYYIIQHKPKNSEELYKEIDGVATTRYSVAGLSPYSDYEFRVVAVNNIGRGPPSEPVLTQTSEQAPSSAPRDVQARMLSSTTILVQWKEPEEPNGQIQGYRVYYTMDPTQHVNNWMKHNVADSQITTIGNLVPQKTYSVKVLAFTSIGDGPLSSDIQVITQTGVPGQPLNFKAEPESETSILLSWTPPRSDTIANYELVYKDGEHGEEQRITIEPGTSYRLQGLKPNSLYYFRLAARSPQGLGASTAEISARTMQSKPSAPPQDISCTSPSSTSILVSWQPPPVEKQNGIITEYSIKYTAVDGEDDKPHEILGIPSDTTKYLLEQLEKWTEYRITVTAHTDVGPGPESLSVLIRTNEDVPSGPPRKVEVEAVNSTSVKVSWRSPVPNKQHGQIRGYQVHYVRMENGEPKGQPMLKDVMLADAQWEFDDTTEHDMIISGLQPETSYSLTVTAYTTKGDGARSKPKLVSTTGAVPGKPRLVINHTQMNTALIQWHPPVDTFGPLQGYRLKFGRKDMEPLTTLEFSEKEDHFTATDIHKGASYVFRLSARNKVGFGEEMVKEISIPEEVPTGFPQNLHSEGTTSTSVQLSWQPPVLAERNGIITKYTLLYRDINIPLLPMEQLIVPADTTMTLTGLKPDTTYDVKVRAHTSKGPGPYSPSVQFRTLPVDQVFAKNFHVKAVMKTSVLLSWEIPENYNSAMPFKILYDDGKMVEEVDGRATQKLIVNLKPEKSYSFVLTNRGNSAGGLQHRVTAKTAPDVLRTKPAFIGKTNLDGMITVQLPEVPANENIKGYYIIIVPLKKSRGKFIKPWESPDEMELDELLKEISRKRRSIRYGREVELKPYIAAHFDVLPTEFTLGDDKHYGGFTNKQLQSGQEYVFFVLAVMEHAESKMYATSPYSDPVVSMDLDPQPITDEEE

T3: human PTPδ Ig1-3(+/+) (human) (UniProt P23468)
T3 sequence: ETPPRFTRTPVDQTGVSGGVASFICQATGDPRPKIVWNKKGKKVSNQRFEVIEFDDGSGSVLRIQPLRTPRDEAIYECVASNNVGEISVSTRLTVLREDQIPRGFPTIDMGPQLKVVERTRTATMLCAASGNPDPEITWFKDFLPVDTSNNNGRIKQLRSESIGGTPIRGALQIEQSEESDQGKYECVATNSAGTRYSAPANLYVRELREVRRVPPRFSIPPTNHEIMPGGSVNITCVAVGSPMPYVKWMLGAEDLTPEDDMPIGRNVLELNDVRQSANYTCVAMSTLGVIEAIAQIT


What was measured:
[1] = molecular target: T1, pDis-PTPδ WT(+/+) (human); experiment: cell adhesion (cell aggregation) assay; as the cell adhesion assay, pre-formed aggregates of L cells treated with 0.5 mg/ml heparan sulfate for a further 2 h
[2] = molecular target: T2, pDis-PTPδΔK(+/+) (human); experiment: as above
[3] = molecular target: T1, pDis-PTPδ WT(+/+) (human); experiment: cell adhesion (cell aggregation) assay; L cells expressing EGFP and the postsynaptic partner (pDisplay) mixed with L cells expressing DsRed and the LAR-RPTP (pDisplay), rotated at room temperature for 2 h, aggregates imaged by confocal microscopy; without glycan or with 0.5 mg/ml chondroitin sulfate for a further 2 h
[4] = molecular target: T2, pDis-PTPδΔK(+/+) (human); experiment: as above
[5] = molecular target: T3, human PTPδ Ig1-3(+/+) (human); experiment: condition: only with a 2-fold molar excess of heparan sulfate; SEC; with heparan sulfate: pre-formed complex incubated with a 2-fold molar excess of HS at 4°C for 3 h, or LAR-RPTP Ig1-3 pre-incubated with a 2-fold molar excess of HS and then with the partner; Superdex 200 10/300 GL, 10 mM Tris-HCl pH 8.0, 50 mM NaCl; both purified

Row | Binder | binding [1] | binding [2] | binding [3] | binding [4] | binding [5]
1 | pDis-IL1RAPL1 WT (receptor, UniProt Q9NZN1 27-349) SADGCTDWSIDIKKYQVLVGEPVRIKCALFYGYIRTNYSLAQSAGLSLMWYKSSGPGDFEEPIAFDGSRMSKEEDSIWFRPTLLQDSGLYACVIRNSTYCMKVSISLTVGENDTGLCYNSKMKYFEKAELSKSKEISCRDIEDFLLPTREPEILWYKECRTKTWRPSIVFKRDTLLIREVREDDIGNYTCELKYGGFVVRRTTELTVTAPLTDKPPKLLYPMESKLTIQETQLGDSANLTCRAFFGYSGDVSPLIYWMKGEKFIEDLDENRVWESDIRILKEHLGEQEVSISLIVDSVEEGDLGNYSCYVENGNGRRHASVLL | no binding (condition: with 0.5 mg/ml heparan sulfate) | binds | binds | binds | –
2 | pDis-IL1RAPL1 mutant (E87A/E137R/N138A/R342D/H344D) (receptor, UniProt Q9NZN1 27-349) SADGCTDWSIDIKKYQVLVGEPVRIKCALFYGYIRTNYSLAQSAGLSLMWYKSSGPGDFEAPIAFDGSRMSKEEDSIWFRPTLLQDSGLYACVIRNSTYCMKVSISLTVGRADTGLCYNSKMKYFEKAELSKSKEISCRDIEDFLLPTREPEILWYKECRTKTWRPSIVFKRDTLLIREVREDDIGNYTCELKYGGFVVRRTTELTVTAPLTDKPPKLLYPMESKLTIQETQLGDSANLTCRAFFGYSGDVSPLIYWMKGEKFIEDLDENRVWESDIRILKEHLGEQEVSISLIVDSVEEGDLGNYSCYVENGNGDRDASVLL | – | – | binds | – | –
3 | human IL1RAPL1 Ig1-3 (domain or fragment, glycans (NAG2-BMA-MAN) attached to N138, IL-1 receptor accessory protein-like 1 (IL1RAPL1), human, Ig-like domains 1-3 of the extracellular part; In the functional row the Fc-fused form (Fc not cleaved) was used; also called IL-1 receptor accessory protein-like 1; IL1RAPL1 Ig1-3-Fc / IL1RAPL1-Fc (Fc kept, in the clustering assays only); source: High Five insect cells (baculovirus), secreted, purified (IgG Sepharose or protein A …)) SADGCTDWSIDIKKYQVLVGEPVRIKCALFYGYIRTNYSLAQSAGLSLMWYKSSGPGDFEEPIAFDGSRMSKEEDSIWFRPTLLQDSGLYACVIRNSTYCMKVSISLTVGENDTGLCYNSKMKYFEKAELSKSKEISCRDIEDFLLPTREPEILWYKECRTKTWRPSIVFKRDTLLIREVREDDIGNYTCELKYGGFVVRRTTELTVTAPLTDKPPKLLYPMESKLTIQETQLGDSANLTCRAFFGYSGDVSPLIYWMKGEKFIEDLDENRVWESDIRILKEHLGEQEVSISLIVDSVEEGDLGNYSCYVENGNGRRHASVLL | – | – | – | – | no binding
